This passage reports binding results from PMC10409759.

For the assay, the target named is Flag-tagged LEF1 HMG domain (human (cDNA from CAL 27 cells)). Put plainly: co-IP; Flag- and EGFP-tagged proteins overexpressed together in HEK293T; whole-cell lysates; IP with antibodies against Flag and blot against EGFP (Fig. 2E, 2F); IgG or pCMV6 plasmid as negative control.

No constants are given. Whether binding was seen depends on the method and setting. In cells and extracts the contact can be indirect. A result given as binding can be weak or reduced; the word gives no strength. Where a sequence is shown, tags or fusion partners need not be part of it.

B1: EGFP-tagged KDM4A (protein, UniProt O75164 1-1064)
chain: MASESETLNPSARIMTFYPTMEEFRNFSRYIAYIESQGAHRAGLAKVVPPKEWKPRASYDDIDDLVIPAPIQQLVTGQSGLFTQYNIQKKAMTVREFRKIANSDKYCTPRYSEFEELERKYWKNLTFNPPIYGADVNGTLYEKHVDEWNIGRLRTILDLVEKESGITIEGVNTPYLYFGMWKTSFAWHTEDMDLYSINYLHFGEPKSWYSVPPEHGKRLERLAKGFFPGSAQSCEAFLRHKMTLISPLMLKKYGIPFDKVTQEAGEFMITFPYGYHAGFNHGFNCAESTNFATRRWIEYGKQAVLCSCRKDMVKISMDVFVRKFQPERYKLWKAGKDNTVIDHTLPTPEAAEFLKESELPPRAGNEEECPEEDMEGVEDGEEGDLKTSLAKHRIGTKRHRVCLEIPQEVSQSELFPKEDLSSEQYEMTECPAALAPVRPTHSSVRQVEDGLTFPDYSDSTEVKFEELKNVKLEEEDEEEEQAAAALDLSVNPASVGGRLVFSGSKKKSSSSLGSGSSRDSISSDSETSEPLSCRAQGQTGVLTVHSYAKGDGRVTVGEPCTRKKGSAARSFSERELAEVADEYMFSLEENKKSKGRRQPLSKLPRHHPLVLQECVSDDETSEQLTPEEEAEETEAWAKPLSQLWQNRPPNFEAEKEFNETMAQQAPHCAVCMIFQTYHQVEFGGFNQNCGNASDLAPQKQRTKPLIPEMCFTSTGCSTDINLSTPYLEEDGTSILVSCKKCSVRVHASCYGVPPAKASEDWMCSRCSANALEEDCCLCSLRGGALQRANDDRWVHVSCAVAILEARFVNIAERSPVDVSKIPLPRFKLKCIFCKKRRKRTAGCCVQCSHGRCPTAFHVSCAQAAGVMMQPDDWPFVVFITCFRHKIPNLERAKGALQSITAGQKVISKHKNGRFYQCEVVRLTTETFYEVNFDDGSFSDNLYPEDIVSQDCLQFGPPAEGEVVQVRWTDGQVYGAKFVASHPIQMYQVEFEDGSQLVVKRDDVYTLDEELPKRVKSRLSVASDMRFNEIFTEKEVKQEKKRQRVINSRYREDYIEPALYRAIME
In the case of B1, the binding result is recorded as “binds”.
